Patent US11957762B2, “Immune tolerant and non-immune tolerant elastin-like recombinant peptides and methods of use” (University of Utah Research Foundation, priority 2015, dated 2024)
The amount applied is not stated for every result.

Tested on: DC 2.4 cells
Test: Intracellular degradation of RED-NP in DCs (SDS-PAGE of cell lysate)
Format: cell-based, murine
Settings: DC 2.4 cells incubated with Alexa-488 labeled NP for 1 h

B1: RED-NP: reductive-environment dependable NP, disulfide stabilized fusion iTEPB70-iTEPA28-(G8C)4-pOVA (SEQ ID NO: 61) (protein)
chain: GGAGVPGGAGVPGGAGVPGGAGVPGGAGVPGGAGVPGGAGVPGGAGVPGGAGVPGGAGVPGGAGVPGGAGVPGGAGVPGGAGVPGGAGVPGGAGVPGGAGVPGGAGVPGGAGVPGGAGVPGGAGVPGGAGVPGGAGVPGGAGVPGGAGVPGGAGVPGGAGVPGGAGVPGGAGVPGGAGVPGGAGVPGGAGVPGGAGVPGGAGVPGGAGVPGGAGVPGGAGVPGGAGVPGGAGVPGGAGVPGGAGVPGGAGVPGGAGVPGGAGVPGGAGVPGGAGVPGGAGVPGGAGVPGGAGVPGGAGVPGGAGVPGGAGVPGGAGVPGGAGVPGGAGVPGGAGVPGGAGVPGGAGVPGGAGVPGGAGVPGGAGVPGGAGVPGGAGVPGGAGVPGGAGVPGGAGVPGGAGVPGGAGVPGGAGVPGGAGVPGGGVLPGVGGVLPGVGGVLPGVGGVLPGVGGVLPGVGGVLPGVGGVLPGVGGVLPGVGGVLPGVGGVLPGVGGVLPGVGGVLPGVGGVLPGVGGVLPGVGGVLPGVGGVLPGVGGVLPGVGGVLPGVGGVLPGVGGVLPGVGGVLPGVGGVLPGVGGVLPGVGGVLPGVGGVLPGVGGVLPGVGGVLPGVGGVLPGVGGCGCGCGCGESIINFEKLTESIINFEKLTGG
  time after incubation at which the ~50 kDa band disappeared completely: 1 h
  time after incubation by which the ~50 kDa band mostly faded away: ≤ 30 min
